By UniProt entry, the sequences of proteins in these tests, tags left out. Where a name states a change or a piece, a line headed by the entry shows the natural chain unless it says otherwise.
UniProt Q9D219: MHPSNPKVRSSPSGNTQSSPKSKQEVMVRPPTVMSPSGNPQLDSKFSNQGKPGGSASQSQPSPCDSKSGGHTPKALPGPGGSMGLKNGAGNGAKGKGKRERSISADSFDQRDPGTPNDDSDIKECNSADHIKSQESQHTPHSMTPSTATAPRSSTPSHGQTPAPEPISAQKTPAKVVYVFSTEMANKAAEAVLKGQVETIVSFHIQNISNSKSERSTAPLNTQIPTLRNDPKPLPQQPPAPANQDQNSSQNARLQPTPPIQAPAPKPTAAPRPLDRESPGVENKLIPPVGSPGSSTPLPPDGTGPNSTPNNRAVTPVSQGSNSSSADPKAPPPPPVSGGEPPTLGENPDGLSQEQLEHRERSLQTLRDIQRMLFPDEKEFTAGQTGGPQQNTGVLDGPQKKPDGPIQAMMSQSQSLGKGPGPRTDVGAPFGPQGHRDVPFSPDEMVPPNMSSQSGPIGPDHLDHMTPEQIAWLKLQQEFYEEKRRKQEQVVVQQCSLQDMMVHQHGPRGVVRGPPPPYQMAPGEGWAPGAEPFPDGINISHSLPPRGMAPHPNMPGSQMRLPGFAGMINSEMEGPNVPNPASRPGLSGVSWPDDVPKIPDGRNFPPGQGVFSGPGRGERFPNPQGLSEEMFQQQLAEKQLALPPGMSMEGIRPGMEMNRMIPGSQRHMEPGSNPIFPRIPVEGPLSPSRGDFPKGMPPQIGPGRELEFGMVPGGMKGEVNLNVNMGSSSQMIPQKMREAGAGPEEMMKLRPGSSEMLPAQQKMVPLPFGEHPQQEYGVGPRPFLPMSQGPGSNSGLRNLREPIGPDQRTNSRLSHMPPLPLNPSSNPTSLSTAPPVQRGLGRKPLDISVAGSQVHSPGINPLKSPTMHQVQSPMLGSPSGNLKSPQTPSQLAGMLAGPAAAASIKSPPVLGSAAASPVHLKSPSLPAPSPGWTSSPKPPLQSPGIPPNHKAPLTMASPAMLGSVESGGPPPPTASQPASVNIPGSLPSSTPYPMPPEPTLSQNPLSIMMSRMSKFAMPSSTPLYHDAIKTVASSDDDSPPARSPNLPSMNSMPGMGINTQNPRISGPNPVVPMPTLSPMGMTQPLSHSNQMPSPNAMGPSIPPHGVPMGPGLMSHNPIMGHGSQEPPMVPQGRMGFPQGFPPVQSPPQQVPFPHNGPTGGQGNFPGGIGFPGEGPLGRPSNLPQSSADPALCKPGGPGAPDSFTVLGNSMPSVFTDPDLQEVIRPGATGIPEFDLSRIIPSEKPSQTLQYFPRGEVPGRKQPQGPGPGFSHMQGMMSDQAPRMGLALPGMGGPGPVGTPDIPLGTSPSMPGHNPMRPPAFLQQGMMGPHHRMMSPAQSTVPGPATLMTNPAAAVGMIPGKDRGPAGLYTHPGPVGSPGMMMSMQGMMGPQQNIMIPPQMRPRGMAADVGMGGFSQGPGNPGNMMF

In paper PMC7434441:

Biological target: BCL9-ΔHD1 (HD1-deleted variant of BCL9, endogenous in Bcl9/9l-ΔHD1 mouse tumors) (mouse (endogenous in mouse colorectal tumors)) (UniProt Q9D219)
Test: co-IP; the same anti-BCL9 immunoprecipitates of control or Bcl9/9l-ΔHD1 mouse tumor extracts, SDS-PAGE and blot probed with anti-TBX3

B1: TBX3 (endogenous in mouse colorectal tumors) (protein, UniProt P70324 1-741)
chain: MSLSMRDPVIPGTSMAYHPFLPHRAPDFAMSAVLGHQPPFFPALTLPPNGAAALSLPGALAKPIMDQLVGAAETGIPFSSLGPQAHLRPLKTMEPEEDVEDDPKVHLEAKELWDQFHKRGTEMVITKSGRRMFPPFKVRCSGLDKKAKYILLMDIIAADDCRYKFHNSRWMVAGKADPEMPKRMYIHPDSPATGEQWMSKVVTFHKLKLTNNISDKHGFTLAFPSDHATWQGNYSFGTQTILNSMHKYQPRFHIVRANDILKLPYSTFRTYLFPETEFIAVTAYQNDKITQLKIDNNPFAKGFRDTGNGRREKRKQLTLQSMRVFEERHKKETSDESSSEQAAFNCFAQASSPAVSIVGTSNLKDLCPSEAESDAEAESKEEHGPEACDAAKISTTTAEEPGRDKGSPATRAQLFPAEPSRARDTARLDKASPDSRHSPATISSSTRVPGADERRSPGREGPVATKVDEARAIPAKDAFAPLSVQTDATAHLAQGPLPGLGFAPGLAGQQFFNGHPLFLHPGQFAMGGAFSSMAAGMGPLLATVSGASTGVSGLESTAMASAAAAQGLSGASAATLPFHLQQHVLASQGLAMSPFGSLFPYPYTYMAAAAAASTAAASSSVHRHPFLNLNSMRPRLRYSPYSIPVPVPDSSSLLATALPSMASAAGPLDGKAAALAASPASVAVDSGSELNSRSSTLSSGSVSLSPKLCSEKEAATSELQSIQRLVSGLEAKPDRSCSGSP
**Q.** For B1, which binding is on record?
**A.** The binding was “no binding”.

These are yes or no findings as the source states them, for the method shown. Binding seen in cells or lysates may run through a third protein.
